We go through one substance from article PMC1940015.

Sequences of proteins named here, by UniProt entry; tags and fusion partners are left off.
UniProt Q66H76: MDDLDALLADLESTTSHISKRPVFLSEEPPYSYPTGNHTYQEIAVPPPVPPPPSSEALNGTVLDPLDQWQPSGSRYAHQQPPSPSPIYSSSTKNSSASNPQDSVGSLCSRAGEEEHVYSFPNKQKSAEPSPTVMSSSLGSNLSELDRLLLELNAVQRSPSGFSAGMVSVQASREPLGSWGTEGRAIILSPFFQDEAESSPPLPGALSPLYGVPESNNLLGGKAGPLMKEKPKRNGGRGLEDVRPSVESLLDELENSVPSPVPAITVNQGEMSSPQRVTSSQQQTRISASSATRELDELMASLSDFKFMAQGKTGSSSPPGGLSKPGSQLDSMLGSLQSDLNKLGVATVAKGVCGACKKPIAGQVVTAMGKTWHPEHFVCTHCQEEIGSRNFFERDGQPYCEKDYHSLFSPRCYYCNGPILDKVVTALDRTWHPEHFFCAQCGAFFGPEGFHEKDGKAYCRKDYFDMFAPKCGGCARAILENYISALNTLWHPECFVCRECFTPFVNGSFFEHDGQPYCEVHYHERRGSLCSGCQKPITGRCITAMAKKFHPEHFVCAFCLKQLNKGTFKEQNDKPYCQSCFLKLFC

One experiment has as its target T1, α4E983A (human) (UniProt P13612).
T1 sequence (chain, biotin (cell surface molecules labelled with NHS-LC-Biotin)): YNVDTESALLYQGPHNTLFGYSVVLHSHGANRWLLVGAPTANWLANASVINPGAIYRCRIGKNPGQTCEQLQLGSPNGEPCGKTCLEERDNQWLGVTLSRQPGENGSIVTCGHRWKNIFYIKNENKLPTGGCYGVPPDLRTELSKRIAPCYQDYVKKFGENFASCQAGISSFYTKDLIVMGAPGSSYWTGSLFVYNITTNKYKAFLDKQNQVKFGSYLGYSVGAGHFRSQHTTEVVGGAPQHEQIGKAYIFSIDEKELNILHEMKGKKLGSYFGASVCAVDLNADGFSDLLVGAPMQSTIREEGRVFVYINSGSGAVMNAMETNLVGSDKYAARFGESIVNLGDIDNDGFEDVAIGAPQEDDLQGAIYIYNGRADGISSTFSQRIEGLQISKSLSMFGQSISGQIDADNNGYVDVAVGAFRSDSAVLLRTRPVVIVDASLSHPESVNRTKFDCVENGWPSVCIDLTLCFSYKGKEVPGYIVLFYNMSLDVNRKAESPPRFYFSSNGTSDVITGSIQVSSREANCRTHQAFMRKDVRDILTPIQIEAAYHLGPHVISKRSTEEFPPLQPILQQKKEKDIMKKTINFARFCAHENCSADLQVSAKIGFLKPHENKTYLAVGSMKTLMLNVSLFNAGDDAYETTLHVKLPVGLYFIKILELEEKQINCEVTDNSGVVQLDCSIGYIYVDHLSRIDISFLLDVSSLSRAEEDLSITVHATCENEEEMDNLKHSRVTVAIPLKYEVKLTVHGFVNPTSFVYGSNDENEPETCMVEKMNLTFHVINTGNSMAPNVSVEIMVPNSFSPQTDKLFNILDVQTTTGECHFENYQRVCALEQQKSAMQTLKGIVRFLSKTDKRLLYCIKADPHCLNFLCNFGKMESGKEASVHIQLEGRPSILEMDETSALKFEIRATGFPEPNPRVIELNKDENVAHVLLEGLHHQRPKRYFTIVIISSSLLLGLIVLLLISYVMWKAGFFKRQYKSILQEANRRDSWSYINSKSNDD
Briefly: co-IP; 1% Triton X-100 lysates of biotin-labelled PC12 cells expressing the α4 constructs; immunoprecipitated overnight at 4°C with anti-human α4 extracellular domain antibody; beads washed with 0.5 M NaCl, 1% NP40 buffer; western blot with anti-paxillin antibody. A general note: A western blot detects proteins with antibodies after separation by electrophoresis.

The target of the next experiment is T2, α4S988D (human) (UniProt P13612).
T2 sequence (chain, biotin (cell surface molecules labelled with NHS-LC-Biotin)): T1 sequence (chain, biotin (cell surface molecules labelled with NHS-LC-Biotin)) with A983E, S988D
Described as above.

Residue numbers refer to the chain shown, from its start. Results are given in words; binding and its absence hold for the method and conditions named. In cells and extracts the contact can be indirect. Some binding calls cover weakened binding; strength is not graded here.

As to “paxillin (endogenous in PC12 cells) (from UniProt Q66H76 1-586)”, the figures for the binding result with α4E983A (human) and with α4S988D (human) were “binds” and “no binding”, respectively.
